PubChem BioAssay AID1508597 | Cure First, 2020

Assay: 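Survival screen with siRNA in ovarian cancer cells derived from patients, with or without rucaparib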 (primary screen)
Cell system: human ovarian carcinoma lines grown from tumours: OCI-P5x (papillary serous) and OCI-C5x (clear cell)
Reagent: siRNA pool against human genes, 1.25 pmol siRNA per well
Duration: 72 h or 96 h, depending on the cell culture
Treatment: rucaparib 20 µM (about IC30) or vehicle, present until read-out
Read-out: 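ATP luminescence measured at 72 or 96 h according to the culture, then normalised and expressed as percent viability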
Direction: viability, normalised: higher = more viable cells remaining
Call rule: 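a well counts as a hit if its normalised viability is under 80 percent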
Calls: active = viability under 80%; inactive = viability 80% or more
Shown is a random part of about 2,100 deposited reagents. 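Calls flag viability under 80% in either arm, not effects specific to rucaparib; the reference for percent is not stated.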 Reagent sequences are not shown. Not stated in the record: the 100% reference.

KSR1 (kinase suppressor of ras 1), rucaparib or vehicle Rucaparib, cell line OCI-C5x (clear cell), technical replicate 1 showed viability, normalised (%) = 51.2; active.
For KSR1 (kinase suppressor of ras 1), rucaparib or vehicle Rucaparib, cell line OCI-C5x (clear cell), technical replicate 2, the values are viability, normalised (%) = 32.7; active.
KSR1 (kinase suppressor of ras 1), rucaparib or vehicle Rucaparib, cell line OCI-C5x (clear cell), technical replicate 3 scored viability, normalised (%) = 40.7; active.
For KSR1 (kinase suppressor of ras 1), rucaparib or vehicle Rucaparib, cell line OCI-P5x (serous), technical replicate 1 the deposit lists viability, normalised (%) = 60.4; active.
KSR1 (kinase suppressor of ras 1), rucaparib or vehicle Rucaparib, cell line OCI-P5x (serous), technical replicate 2 scored viability, normalised (%) = 95.3; inactive.
For KSR1 (kinase suppressor of ras 1), rucaparib or vehicle Rucaparib, cell line OCI-P5x (serous), technical replicate 3, the values are viability, normalised (%) = 92; inactive.
KSR1 (kinase suppressor of ras 1), rucaparib or vehicle Vehicle, cell line OCI-C5x (clear cell), technical replicate 1 showed viability, normalised (%) = 55.2; active.
With KSR1 (kinase suppressor of ras 1), rucaparib or vehicle Vehicle, cell line OCI-C5x (clear cell), technical replicate 2, the values are viability, normalised (%) = 51.5; active.
KSR1 (kinase suppressor of ras 1), rucaparib or vehicle Vehicle, cell line OCI-C5x (clear cell), technical replicate 3 showed viability, normalised (%) = 47.9; active.
KSR1 (kinase suppressor of ras 1), rucaparib or vehicle Vehicle, cell line OCI-P5x (serous), technical replicate 1 scored viability, normalised (%) = 88.3; inactive.
KSR1 (kinase suppressor of ras 1), rucaparib or vehicle Vehicle, cell line OCI-P5x (serous), technical replicate 2 scored viability, normalised (%) = 66.9; active.
With KSR1 (kinase suppressor of ras 1), rucaparib or vehicle Vehicle, cell line OCI-P5x (serous), technical replicate 3, the values are viability, normalised (%) = 60.9; active.
